Reference: article PMC9584954
Results are given in words; binding and its absence hold for the method and conditions named. Binding seen in cells or lysates may run through a third protein. A yes stands for co-enrichment or nearness to the bait. Other partners may have been found. For some assays here: No binding means not detected with the bait. Where a sequence is shown, tags or fusion partners need not be part of it. Values belong to the molecule of their own block, whether it stands above or below them.

Sequences of proteins named here, by UniProt entry; tags and fusion partners are left off. A change or cut given only in a name is not applied to a line headed by its entry.
UniProt Q6LZK7: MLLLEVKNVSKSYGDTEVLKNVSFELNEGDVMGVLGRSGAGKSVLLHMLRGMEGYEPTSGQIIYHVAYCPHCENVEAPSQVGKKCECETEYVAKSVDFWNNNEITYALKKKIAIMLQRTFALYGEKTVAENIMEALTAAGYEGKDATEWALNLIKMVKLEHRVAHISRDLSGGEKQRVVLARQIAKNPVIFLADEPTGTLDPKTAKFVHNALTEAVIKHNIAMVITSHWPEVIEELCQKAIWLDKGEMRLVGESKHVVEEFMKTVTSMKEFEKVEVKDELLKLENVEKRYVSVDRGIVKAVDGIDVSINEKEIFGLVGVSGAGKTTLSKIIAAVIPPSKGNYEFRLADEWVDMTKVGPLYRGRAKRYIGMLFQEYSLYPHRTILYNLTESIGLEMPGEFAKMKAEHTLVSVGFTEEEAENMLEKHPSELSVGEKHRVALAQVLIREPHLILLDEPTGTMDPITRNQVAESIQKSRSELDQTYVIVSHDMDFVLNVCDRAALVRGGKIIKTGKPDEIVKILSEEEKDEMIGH
UniProt Q6M0W4: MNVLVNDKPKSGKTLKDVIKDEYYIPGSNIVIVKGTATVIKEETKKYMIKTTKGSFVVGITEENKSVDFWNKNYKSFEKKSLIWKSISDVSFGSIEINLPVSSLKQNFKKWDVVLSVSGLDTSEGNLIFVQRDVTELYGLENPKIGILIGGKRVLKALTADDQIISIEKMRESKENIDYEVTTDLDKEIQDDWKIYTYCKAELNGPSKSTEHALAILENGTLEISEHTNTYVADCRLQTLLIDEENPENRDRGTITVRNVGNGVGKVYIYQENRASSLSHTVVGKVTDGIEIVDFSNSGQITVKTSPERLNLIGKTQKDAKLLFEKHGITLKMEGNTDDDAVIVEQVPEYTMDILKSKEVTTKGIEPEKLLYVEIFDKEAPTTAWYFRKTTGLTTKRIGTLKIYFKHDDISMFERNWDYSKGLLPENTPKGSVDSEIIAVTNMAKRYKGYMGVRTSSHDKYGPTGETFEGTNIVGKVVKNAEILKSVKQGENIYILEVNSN
UniProt Q6M050: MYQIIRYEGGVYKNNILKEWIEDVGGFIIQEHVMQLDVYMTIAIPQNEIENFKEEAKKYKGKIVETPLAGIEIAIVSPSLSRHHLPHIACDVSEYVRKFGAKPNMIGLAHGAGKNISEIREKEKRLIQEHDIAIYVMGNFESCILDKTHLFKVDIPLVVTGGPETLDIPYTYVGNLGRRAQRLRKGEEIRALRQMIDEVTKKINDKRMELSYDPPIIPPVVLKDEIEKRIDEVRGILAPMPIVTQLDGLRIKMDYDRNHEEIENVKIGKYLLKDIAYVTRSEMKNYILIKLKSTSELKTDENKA
UniProt Q6LZH2: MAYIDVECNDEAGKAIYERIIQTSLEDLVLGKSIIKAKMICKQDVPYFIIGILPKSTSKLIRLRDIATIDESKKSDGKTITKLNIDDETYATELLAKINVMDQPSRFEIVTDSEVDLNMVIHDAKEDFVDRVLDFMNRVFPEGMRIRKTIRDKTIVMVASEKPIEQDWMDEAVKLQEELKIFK

How the values were obtained:
[1] = target: T1, Flag-Strep2-tagged Methanococcus maripaludis McrC (N-terminal tag) (Methanococcus maripaludis) (UniProt Q6LWZ7); assay: affinity purification with mass spectrometry; pull-down of Flag-Strep2-tagged McrC or McrD expressed from a plasmid in M. maripaludis; co-purified proteins separated by SDS-PAGE and identified by MALDI-TOF MS, relative abundance by LC-MS/MS
T1 sequence: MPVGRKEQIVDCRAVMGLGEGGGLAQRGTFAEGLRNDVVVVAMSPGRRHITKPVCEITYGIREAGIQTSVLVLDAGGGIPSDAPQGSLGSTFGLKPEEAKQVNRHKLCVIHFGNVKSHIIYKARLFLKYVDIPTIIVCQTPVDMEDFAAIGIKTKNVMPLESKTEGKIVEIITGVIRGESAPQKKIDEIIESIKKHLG

[2] = target: Flag-Strep2-tagged Methanococcus aeolicus McrG (tag at the N-terminus of McrG, NG) (Methanococcus aeolicus); assay: affinity purification with mass spectrometry; Flag-Strep2-tagged subunit expressed with its mcr operon (full or truncated) in M. maripaludis at 37 °C; lysate on Strep-Tactin Superflow Plus in 100 mM Tris-HCl pH 7.6, 150 mM NaCl, eluted with 2.5 mM desthiobiotin, then Q-Sepharose anion exchange; SDS-PAGE, bands identified by MALDI-TOF MS, relative abundance by LC-MS/MS
[3] = target: Flag-Strep2-tagged Methanococcus aeolicus McrD (tag at the N-terminal of McrD) (Methanococcus aeolicus); assay: affinity purification with mass spectrometry; pull-down of Flag-Strep2-tagged McrC or McrD expressed from a plasmid in M. maripaludis; co-purified proteins separated by SDS-PAGE and identified by MALDI-TOF MS, relative abundance by LC-MS/MS
[4] = target: Flag-Strep2-tagged McrG of the ANME-1_BS MCR (uncultured archaeon ANME-1_BS); assay: affinity purification with mass spectrometry; N-terminally Flag-Strep2-tagged McrG with its operon expressed in M. maripaludis grown at 25 °C; Strep-Tactin affinity chromatography, then Strep-Tactin XT magnetic beads; SDS-PAGE, MALDI-TOF MS
[5] = target: Flag-Strep2-tagged McrG of the ANME-2b_HR1 MCR (uncultured archaeon ANME-2b_HR1); assay: as above

binding [1]: binds
Molecule: M. maripaludis A2 protein (MCR activation complex component A2) (from UniProt Q6LZK7)

binding [1]: binds
Molecule: Methanococcus maripaludis McrA (untagged)

binding [1]: binds
Molecule: methanogenesis marker protein 3 of M. maripaludis (from UniProt Q6M0W4)

binding [1]: binds
Molecule: methanogenesis marker protein 7 of M. maripaludis (from UniProt Q6M050)

binding [1]: binds
Molecule: methanogenesis marker protein 17 of M. maripaludis (from UniProt Q6LZH2)

binding [1]: binds
Molecule: untagged host Methanococcus maripaludis McrG

binding [2]: binds
B1: host Methanococcus maripaludis McrD (protein, UniProt Q6LWZ8 1-159)
chain: MIELEVFPHRYLKAETTEKFLNRAYSLSKVQRVVIHGESLPNKVGYGPAKGTPVNHSEKKEITVKGVPVELMLQVGRLWVLLDDESEIEKIEEICKDLFPFGYRLTKGKFLRNDPTVSDFIKYGESAVDDIDKRLLGATDPRSKFDSSVTIIPKSEKNE

binding [3]: binds
binding [4]: no binding
binding [5]: binds
binding [2]: binds weakly
B2: Methanococcus maripaludis McrB (untagged) (protein, UniProt Q6LWZ9 1-443)
chain: MVKYEDKISLYDAKGNLVAENVPLEAISPLYNPTIKSMVKNIKRTVAVNLAGIEGTLAAGKIGGKGCQVPGRTLDISAVSNAQAIADEVEKILKVSEDDDTAVKIINGGKQLAVQVPTARLDVAAEYSVSMLSTAMALKEALIKTFNIDMFDGSTVHAAIVGNYPQVMDYAGGNIASLLGAPSMMEGLGYALRNIPVNHAVATTKKNMMNAIAFSSVMEQTATFEMGDAVGSFERQHLLGLAYQGLNADNLVIDFIKANAKGTVGSVVETVIDRAIADGVIVVDKTMSSGFNMYKPADVNKWNAYAAAGLVAAVAVSCGAARAAQNVASVILYFNDILEYETGLPGVDYGRSMGTAVGFSFFSHSIYGGGGPGIFNGNHVVTRHSKGFAIPPVCAAMCADAGTQMFSPEHTSGLVGSVYSAFDEFREPMKYVIEGALSIKDQF
